Laboratory results taken from article PMC9873567 (2022).
Results are given in words; binding and its absence hold for the method and conditions named. For some assays here: A result given as binding can be weak or reduced; the word gives no strength. For some assays here: Where a sequence is shown, tags or fusion partners need not be part of it. Values belong to the molecule of their own block, whether it stands above or below them.

Key:
Assay in all cases: two-hybrid; yeast strain AH109; bait on the DNA-binding domain (pGBKT7), prey on the activation domain (pGADT7); growth on SD (-Trp, -Leu, -His) with 1 mM 3-AT, tenfold serial dilutions
[1] = molecular target: T1, PUB30 (1-65 + 132-448), PUB30 (ΔU-box), as bait (Arabidopsis thaliana) (UniProt Q058P4)
T1 sequence: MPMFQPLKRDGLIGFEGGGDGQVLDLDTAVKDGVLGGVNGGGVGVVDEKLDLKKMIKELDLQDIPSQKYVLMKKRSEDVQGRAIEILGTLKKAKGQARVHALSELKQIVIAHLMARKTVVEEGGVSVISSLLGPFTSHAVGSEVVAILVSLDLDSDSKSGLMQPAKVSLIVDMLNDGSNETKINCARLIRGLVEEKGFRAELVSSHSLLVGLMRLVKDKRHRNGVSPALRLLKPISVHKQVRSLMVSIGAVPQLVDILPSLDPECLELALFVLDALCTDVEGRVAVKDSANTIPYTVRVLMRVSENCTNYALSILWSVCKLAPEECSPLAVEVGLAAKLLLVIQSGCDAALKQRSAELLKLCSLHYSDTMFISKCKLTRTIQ

[2] = molecular target: T2, PUB31 (1-61 + 128-444), PUB31 (ΔU-box), as bait (Arabidopsis thaliana) (UniProt Q9FHN9)
T2 sequence: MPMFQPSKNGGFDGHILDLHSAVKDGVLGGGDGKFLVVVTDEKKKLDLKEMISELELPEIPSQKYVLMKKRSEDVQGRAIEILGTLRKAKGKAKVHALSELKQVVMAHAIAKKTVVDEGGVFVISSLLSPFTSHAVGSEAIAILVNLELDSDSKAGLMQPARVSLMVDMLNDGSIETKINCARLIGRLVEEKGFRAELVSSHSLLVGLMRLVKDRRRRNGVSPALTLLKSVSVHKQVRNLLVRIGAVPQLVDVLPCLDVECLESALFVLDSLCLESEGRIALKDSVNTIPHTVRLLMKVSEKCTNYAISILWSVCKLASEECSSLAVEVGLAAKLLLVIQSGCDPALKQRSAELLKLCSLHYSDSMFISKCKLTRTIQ

[3] = molecular target: T3, BD-PUB30 (full length PUB30 as bait) (Arabidopsis thaliana) (UniProt Q058P4)
T3 sequence: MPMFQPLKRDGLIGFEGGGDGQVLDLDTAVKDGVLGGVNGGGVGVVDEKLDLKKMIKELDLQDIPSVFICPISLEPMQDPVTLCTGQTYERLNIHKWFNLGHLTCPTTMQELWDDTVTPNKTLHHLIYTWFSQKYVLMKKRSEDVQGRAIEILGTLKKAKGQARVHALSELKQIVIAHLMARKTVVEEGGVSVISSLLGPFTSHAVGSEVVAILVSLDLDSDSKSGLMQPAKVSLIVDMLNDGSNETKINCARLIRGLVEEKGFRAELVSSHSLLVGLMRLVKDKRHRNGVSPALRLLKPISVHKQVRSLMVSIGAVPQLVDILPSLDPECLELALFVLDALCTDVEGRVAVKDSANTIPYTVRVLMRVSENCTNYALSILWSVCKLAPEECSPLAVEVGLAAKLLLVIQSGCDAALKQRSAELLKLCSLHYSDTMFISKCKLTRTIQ

[4] = molecular target: T4, BD-PUB31 (full length PUB31 as bait) (Arabidopsis thaliana) (UniProt Q9FHN9)
T4 sequence: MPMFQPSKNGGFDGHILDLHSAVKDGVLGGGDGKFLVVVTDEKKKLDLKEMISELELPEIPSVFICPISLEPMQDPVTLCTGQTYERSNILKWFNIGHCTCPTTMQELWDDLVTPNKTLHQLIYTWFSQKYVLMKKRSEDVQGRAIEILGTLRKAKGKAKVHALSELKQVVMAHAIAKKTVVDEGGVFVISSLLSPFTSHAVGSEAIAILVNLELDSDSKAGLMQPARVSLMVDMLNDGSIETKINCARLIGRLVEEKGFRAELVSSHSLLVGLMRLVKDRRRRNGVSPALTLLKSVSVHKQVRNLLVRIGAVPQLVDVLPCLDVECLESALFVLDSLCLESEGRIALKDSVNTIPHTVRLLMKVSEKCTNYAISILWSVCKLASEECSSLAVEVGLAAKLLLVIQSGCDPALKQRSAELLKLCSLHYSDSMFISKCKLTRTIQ

[5] = molecular target: BD-ER_CD (cytosolic domain of ERECTA fused to the DNA-binding domain) (Arabidopsis thaliana)
[6] = molecular target: BD-BAK1_CD (cytosolic domain of BAK1 fused with DNA-binding domain) (Arabidopsis thaliana)

binding [1]: binds
binding [2]: binds
Molecule: BAK1 (BAK1_CD) in the domain analysis in yeast (Extended Data Fig. 4c,d) (Arabidopsis thaliana) (domain or fragment)

binding [3]: no binding
binding [4]: no binding
Molecule: TPR domain of BSK1 as prey (Arabidopsis thaliana) (domain or fragment)

binding [5]: binds
binding [6]: binds
B1: AD-PUB31 (full-length PUB31 fused to the activation domain) (enzyme, UniProt Q9FHN9 1-444)
chain: T4 sequence

binding [5]: binds
binding [6]: binds
B2: AD-PUB30 (full-length PUB30 fused to the activation domain) (enzyme, UniProt Q058P4 1-448)
chain: T3 sequence
